We go through one substance from paper PMC8801411.

Chains of the proteins cited; added tags and fusions are not shown.
UniProt P16649: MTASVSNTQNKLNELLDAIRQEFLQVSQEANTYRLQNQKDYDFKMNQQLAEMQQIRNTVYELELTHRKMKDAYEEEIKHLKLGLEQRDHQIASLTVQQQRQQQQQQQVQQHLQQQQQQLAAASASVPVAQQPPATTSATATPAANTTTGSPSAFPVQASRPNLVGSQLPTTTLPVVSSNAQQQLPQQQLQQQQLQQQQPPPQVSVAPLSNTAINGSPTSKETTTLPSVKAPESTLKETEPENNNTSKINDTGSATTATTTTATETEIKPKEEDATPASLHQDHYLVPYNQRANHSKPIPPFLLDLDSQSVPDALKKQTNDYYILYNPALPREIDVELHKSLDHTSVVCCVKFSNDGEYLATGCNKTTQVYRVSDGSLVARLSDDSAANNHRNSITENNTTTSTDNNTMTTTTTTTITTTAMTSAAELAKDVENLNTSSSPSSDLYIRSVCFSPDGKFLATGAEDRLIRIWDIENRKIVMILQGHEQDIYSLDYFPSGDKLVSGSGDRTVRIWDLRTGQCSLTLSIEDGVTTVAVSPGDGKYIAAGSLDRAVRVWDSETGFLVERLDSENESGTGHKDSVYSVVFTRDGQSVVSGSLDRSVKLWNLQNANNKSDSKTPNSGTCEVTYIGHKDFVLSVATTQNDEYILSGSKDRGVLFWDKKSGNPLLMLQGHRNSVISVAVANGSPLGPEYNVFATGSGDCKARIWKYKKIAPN

Residue numbers refer to the chain shown, from its start. These are yes or no findings as the source states them, for the method shown. Binding seen in cells or lysates may run through a third protein. Some binding calls cover weakened binding; strength is not graded here. Where a sequence is shown, tags or fusion partners need not be part of it.

Holding throughout (assay): pull-down; GST-Gal80 fusions immobilised on GSH sepharose, incubated with bacterial (E. coli) total protein extracts containing HA3-Cyc8 or HA3-Tup1; washing of intermediary stringency; elution with 10 mM free GSH; SDS-PAGE and blot with anti-HA-peroxidase conjugate; only the target purified
The target in assay [1] is T1, GST-Gal80 aa 81-145 LFV-AAA (pos. 119-121) (S. cerevisiae) (UniProt P04387).
T1 sequence: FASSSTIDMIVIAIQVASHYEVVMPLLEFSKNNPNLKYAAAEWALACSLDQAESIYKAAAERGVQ

The target in assay [2] is T2, GST-Gal80 aa 146-220 (S. cerevisiae) (UniProt P04387).
T2 sequence: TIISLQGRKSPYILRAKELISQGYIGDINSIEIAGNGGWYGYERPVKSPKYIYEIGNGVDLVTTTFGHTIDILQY

For assay [3], the target named is T3, GST-Gal80 aa 291-435 (S. cerevisiae) (UniProt P04387).
T3 sequence: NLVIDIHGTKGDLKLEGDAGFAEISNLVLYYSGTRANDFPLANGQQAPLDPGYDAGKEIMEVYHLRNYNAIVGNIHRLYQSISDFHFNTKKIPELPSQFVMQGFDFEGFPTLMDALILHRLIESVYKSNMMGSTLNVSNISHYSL

Assay [4] addresses T4, GST-Gal80 aa 81-145 (repression-mediating domain, wild-type) (S. cerevisiae) (UniProt P04387).
T4 sequence: T1 sequence with A39L, A40F, A41V

In assay [5] the target is T5, GST-Gal80 aa 81-145 V121A (S. cerevisiae) (UniProt P04387).
T5 sequence: T1 sequence with A39L, A40F

Assay [6] addresses T6, GST-Gal80 aa 81-145 Y118A (S. cerevisiae) (UniProt P04387).
T6 sequence: T1 sequence with Y38A, A39L, A40F, A41V

Assay [7] addresses T7, GST-Gal80 (full-length) (S. cerevisiae) (UniProt P04387).
T7 sequence: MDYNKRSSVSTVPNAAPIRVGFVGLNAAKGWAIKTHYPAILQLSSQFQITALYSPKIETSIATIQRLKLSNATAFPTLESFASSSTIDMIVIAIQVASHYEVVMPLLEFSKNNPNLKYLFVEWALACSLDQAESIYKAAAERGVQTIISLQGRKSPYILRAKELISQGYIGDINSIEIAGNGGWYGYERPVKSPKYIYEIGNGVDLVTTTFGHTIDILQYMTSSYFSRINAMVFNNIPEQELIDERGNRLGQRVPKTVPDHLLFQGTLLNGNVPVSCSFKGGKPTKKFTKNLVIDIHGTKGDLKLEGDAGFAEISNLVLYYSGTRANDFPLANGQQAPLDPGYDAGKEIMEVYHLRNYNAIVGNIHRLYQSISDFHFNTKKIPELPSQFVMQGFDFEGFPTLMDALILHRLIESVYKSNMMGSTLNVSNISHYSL

For assay [8], the target named is T8, GST-Gal80 aa 81-145 K117A (S. cerevisiae) (UniProt P04387).
T8 sequence: T1 sequence with K37A, A39L, A40F, A41V

Assay [9] addresses T9, GST-Gal80 aa 81-145 YLF-AAA (pos. 118-120) (S. cerevisiae) (UniProt P04387).
T9 sequence: T1 sequence with Y38A, A41V

Assay [10] addresses T10, GST-Gal80 aa 81-145 W123A (S. cerevisiae) (UniProt P04387).
T10 sequence: T1 sequence with A39L, A40F, A41V, W43A

In the case of “HA3-Tup1 (full length) (from UniProt P16649 1-713)”, the binding entry in assay [1] is given as “binds”; in assay [2] it was “binds”; in [3], “no binding”; in assay [4] it was “binds”; in assay [5], “binds”; in [6], “binds”. Besides, the binding entry in assay [7], in assay [8], in assay [9] and in [10] was “binds” in each case.
